Assay results taken from the supplement of paper PMC12067093, “Discovery and optimisation of a covalent ligand for TRIM25 and its application to targeted protein ubiquitination” (Chemical Science, 2025).
The other results are listed elsewhere or left out.

Compound: Cc1cc(ccc1-c1ccccc1)C(=O)N1CCCN(CC1)C(=O)CCl [compound 10]
Assay: probe-labelled cysteine peptide fold change vs DMSO (competition) (log2 fold change); higher = less target engagement (more negative = stronger competition)
Settings: THP-1, incubation time: 4 h
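Note: competitive profiling in live THP-1 cells: cysteine peptides tagged with an iodoacetamide desthiobiotin (IA-DTB) probe, intensity after compound treatment relative to DMSO-treated cells.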

Target | probe-labelled cysteine peptide fold change (10 µM) | probe-labelled cysteine peptide fold change (50 µM)
PUS10_Q3MIT2_29_FCGVDFHAPYK (UniProt Q3MIT2) | 0.0484 | -0.1
PTDSS1_P48651_419_TYSECEDGTYSPEISWHHR (UniProt P48651) | 0.122 | 0.398
PSMA7_O14818_91_ARVECQSHR (UniProt O14818) | -0.0556 | 0.107
PTPN7_P35236_324_GEVDILGIVCQLR (UniProt P35236) | 0.0959 | -0.0944
PTPRC_P08575_762_CAEYWPSMEEGTR (UniProt P08575) | -0.296 | -0.129
PTTG1IP_P53801_81_ACLDYPVTSVLPPASLCK (UniProt P53801) | -0.00573 | 0.0791
PSMD9_O00233_216_GLLGCNIIPLQR (UniProt O00233) | 0.44 | 0.471
PSMA6_P60900_47_DCAVIVTQK (UniProt P60900) | 0.109 | 0.0462
PSMG1_O95456_169_NMQITILTCR (UniProt O95456) | 0.0336 | -0.278
PSME4_Q14997_958_TLTVEGCEYK (UniProt Q14997) | -0.00149 | 0.216
PSTPIP2_Q9H939_65_KKPCGQSEINTLK (UniProt Q9H939) | -0.16 | -0.225
PTPMT1_Q8WUK0_81_FLCNSSQEWK (UniProt Q8WUK0) | 0.0793 | 0.113
PSMD8_P48556_173_CYYFDYK (UniProt P48556) | 0.194 | 0.631
PSMB8_P28062_174_GMGLSMGSMICGWDK (UniProt P28062) | 0.088 | 0.148
PSMD2_Q13200_251_CALGVFR (UniProt Q13200) | 0.0325 | 0.275
PSMA5_P28066_47_LGSTAIGIQTSEGVCLAVEK (UniProt P28066) | 0.229 | 0.149
PSMA7_O14818_70_ICALDDNVCMAFAGLTADAR (UniProt O14818) | 0.412 | 0.268
PSMD14_O00487_299_HLEEHVDVLMTSNIVQCLAAMLDTVVFK (UniProt O00487) | 0.0884 | -0.534
PTK2B_Q14289_972_LAQQNAVTSLSEECKR (UniProt Q14289) | -0.0215 | -0.241
PSMD1_Q99460_378_NSVCHTATVIANSFMHCGTTSDQFLRDNLEWLAR (UniProt Q99460) | 0.143 | -0.213
PTPRC_P08575_1261_QDANCVNPLGAPEKLPEAK (UniProt P08575) | -0.187 | -0.881

Single records (already shown). Order of values: probe-labelled cysteine peptide fold change (10 µM) | probe-labelled cysteine peptide fold change (50 µM)
PSMD14_O00487_299_HLEEHVDVLMTSNIVQCLAAMLDTVVFK (UniProt O00487) is listed with 0.0884 | -0.534
PSTPIP2_Q9H939_65_KKPCGQSEINTLK (UniProt Q9H939) is listed with -0.16 | -0.225
PSME4_Q14997_958_TLTVEGCEYK (UniProt Q14997) is listed with -0.00149 | 0.216
PTTG1IP_P53801_81_ACLDYPVTSVLPPASLCK (UniProt P53801) is listed with -0.00573 | 0.0791

(continued)

Target | probe-labelled cysteine peptide fold change (10 µM) | probe-labelled cysteine peptide fold change (50 µM)
PSMD6_Q15008_112_AEYLCR (UniProt Q15008) | -0.153 | 0.127
PTPN6_P29350_171_VMCEGGR (UniProt P29350) | -0.121 | 0.0139
PSMC3_P17980_387_CTDDFNGAQCK (UniProt P17980) | 0.00316 | -0.00903
PTPN1_P18031_121_CAQYWPQK (UniProt P18031) | -0.206 | -0.0107
PTGES3_Q15185_58_HLNEIDLFHCIDPNDSK (UniProt Q15185) | -0.121 | -0.322
PTPRC_P08575_610_SCNLDEQQELVERDDEK (UniProt P08575) | -0.427 | -1.12
PTK2B_Q14289_180_VSEGMALQLGCLELRR (UniProt Q14289) | -0.0794 | -0.123
PSMC6_P62333_170_GCLLYGPPGTGK (UniProt P62333) | -0.021 | 0.0529
PSMA7_O14818_63+70_ICALDDNVCMAFAGLTADAR (UniProt O14818) | 0.144 | -0.0633
PSMD14_O00487_238_SWMEGLTLQDYSEHCK (UniProt O00487) | -0.044 | -0.396
PSMD4_P55036_87_ITFCTGIR (UniProt P55036) | 0.00806 | 0.0522
PTPN6_P29350_480_GLDCDIDIQK (UniProt P29350) | -0.0733 | 0.051
PSME4_Q14997_637_CCPEESLK (UniProt Q14997) | -0.0784 | -0.446
PUM1_Q14671_1102_AVLIDEVCTMNDGPHSALYTMMK (UniProt Q14671) | -0.239 | 0.0523
PSMD1_Q99460_660_YGAAMALGICCAGTGNK (UniProt Q99460) | -0.0461 | 0.143
PTGES3_Q15185_20_DYVFIEFCVEDSK (UniProt Q15185) | 0.177 | 0.0951
PTPN11_Q06124_333_SYIATQGCLQNTVNDFWR (UniProt Q06124) | 0.199 | 0.299
PTPRC_P08575_400_TDFGSPGEPQIIFCR (UniProt P08575) | -0.00947 | 0.274
PTPN3_P26045_206_QSEAESCYINIAR (UniProt P26045) | -0.18 | -0.0493
PTRHD1_Q6GMV3_118_NIDHMLWLEQPENIATCIALRPYPK (UniProt Q6GMV3) | -0.0248 | -0.276
PSMD1_Q99460_659+660_YGAAMALGICCAGTGNK (UniProt Q99460) | 0.0137 | -0.24

Target | probe-labelled cysteine peptide fold change (10 µM) | probe-labelled cysteine peptide fold change (50 µM)
PSMD13_Q9UNM6_276_KIQLLCLMEMTFTR (UniProt Q9UNM6) | -0.295 | 0.385
PTPN6_P29350_361_CVPYWPEVGMQR (UniProt P29350) | 0.0529 | -0.0356
PTPRF_P10586_54_VPEDQTGLSGGVASFVCQATGEPKPR (UniProt P10586) | -0.197 | -0.86
PTPRC_P08575_311_FQLHDCTQVEK (UniProt P08575) | -0.532 | 0.0351
PSMD1_Q99460_571_MEEADALIESLCR (UniProt Q99460) | -0.0968 | 0.129
PSMC4_P43686_210_GVLMYGPPGCGK (UniProt P43686) | 0.0201 | -0.0462
PSMB3_P49720_19_NCVAIAADRR (UniProt P49720) | 0.0313 | 0.234
PSMB7_Q99436_87_IHFISPNIYCCGAGTAADTDMTTQLISSNLELHSLSTGR (UniProt Q99436) | 0.134 | 0.0984
PTAR1_Q7Z6K3_314_INLPHLLEEEVEFSTDLIDSYPGHETLWCHR (UniProt Q7Z6K3) | -0.377 | -0.0279
PSMB5_P28074_161_GMGLSMGTMICGWDK (UniProt P28074) | -0.0589 | 0.252
PSMD1_Q99460_703_QGALIASALIMIQQTEITCPK (UniProt Q99460) | 0.0193 | 0.0986
PSMD2_Q13200_205_EIVPYNMAHNAEHEACDLLMEIEQVDMLEK (UniProt Q13200) | -0.388 | -0.307
PTK2B_Q14289_352_TSSLAEAENMADLIDGYCR (UniProt Q14289) | 0.255 | 0.131
PTPRC_P08575_1169_STPLLIHCR (UniProt P08575) | -0.0815 | -0.274
PTK2B_Q14289_562_NILVASPECVK (UniProt Q14289) | -0.0262 | 0.132
PSMA5_P28066_76_IVEIDAHIGCAMSGLIADAK (UniProt P28066) | 0.0618 | -0.148
PSMA7_O14818_91_VECQSHR (UniProt O14818) | -0.0884 | 0.537
PSMC3_P17980_240_ACAAQTK (UniProt P17980) | -0.0208 | -0.0025
PSMD13_Q9UNM6_114_SSDEAVILCK (UniProt Q9UNM6) | 0.0347 | 0.0864
PTPRJ_Q12913_1294_MHRPLMVQTEDQYVFLNQCVLDIVR (UniProt Q12913) | 0.0991 | 0.0715
PTPN7_P35236_324_ARGEVDILGIVCQLR (UniProt P35236) | 0.145 | 0.0571

Target | probe-labelled cysteine peptide fold change (10 µM) | probe-labelled cysteine peptide fold change (50 µM)
PTDSS1_P48651_347_QYYAYLTDTQCK (UniProt P48651) | 0.204 | 0.447
PSMC5_P62195_112_NIDINDVTPNCR (UniProt P62195) | -0.146 | -0.155
PTER_Q96BW5_196_VLQATAHAQAQLGCPVIIHPGR (UniProt Q96BW5) | 0.2 | 0.329
PSMD12_O00232_74_MCYEAK (UniProt O00232) | 0.0642 | 0.189
PTCD2_Q8WV60_355_FDEIYGTLHITGQVTTDSLDAVLCHTPR (UniProt Q8WV60) | -0.196 | 0.084
PSMG2_Q969U7_168_CIPEIDDSEFCIR (UniProt Q969U7) | -0.105 | 0.00831
PSMA4_P25789_107_YLLQYQEPIPCEQLVTALCDIK (UniProt P25789) | 0.268 | 0.644
PSMG2_Q969U7_103_SKPFCEK (UniProt Q969U7) | -0.44 | 0.28
PSMB10_P40306_83_IYCCGAGVAADAEMTTR (UniProt P40306) | -0.284 | -0.179
PSMD12_O00232_109_MVQQCCTYVEEITDLPIK (UniProt O00232) | 0.0825 | 0.283
PSMB8_P28062_7_ALLDVCGAPR (UniProt P28062) | -0.068 | -0.273
PSMD14_O00487_120_QTGRPEMVVGWYHSHPGFGCWLSGVDINTQQSFEALSER (UniProt O00487) | 0.00935 | 0.0662
PTGR1_Q14914_239_IAICGAISTYNR (UniProt Q14914) | -0.119 | 0.126
PSMD2_Q13200_448_SGALLACGIVNSGVR (UniProt Q13200) | 0.0886 | 0.207
PSME4_Q14997_820_DDILQSLTIVHNCLIGSGNLLPPLK (UniProt Q14997) | 0.41 | 0.404
PSMB1_P20618_89_TVIGCSGFHGDCLTLTK (UniProt P20618) | 0.139 | -0.0465
PSME3_P61289_92_RLDECEEAFQGTK (UniProt P61289) | -0.283 | -0.427
PSMA6_P60900_47_GKDCAVIVTQK (UniProt P60900) | -0.0263 | -0.757
PTPN11_Q06124_318_CNNSKPK (UniProt Q06124) | -0.31 | -1.11
PTPRS_Q13332_107_DENVYECVAQNSVGEITVHAK (UniProt Q13332) | 0.185 | -0.167
PTPN1_P18031_226_SGTFCLADTCLLLMDK (UniProt P18031) | 0.0513 | -0.172
